Data source: PubChem BioAssay AID1259254 (NCATS, 2017)
Screen: 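Finding genes that stop cells copying their DNA twice in one cycle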 (primary screen). System: human HCT116 colorectal cancer cells. Knock-down reagent: single siRNA against human genes. Timing: 3 days. Read-out: 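Imaged Hoechst DNA stain sorts each cell into a cycle phase by DNA amount; per plate, G2 fraction set to 0% for non-targeting and 100% for GMNN siRNA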. Reading the numbers: G2 robust z-score and G2 cells, % of GMNN control: higher = more G2 cells, more excess DNA replication. Rule for the call: 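An siRNA counts as active if its G2 robust z-score lies at least 5 MADs above the screen median; here such calls match roughly 38% of GMNN control or more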.
Shown is a random part of about 59,000 reagents tested. About 1,550 of all reagents (2.6%) were called active. 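G2 share is only a proxy for re-replication; each gene was hit by three separate siRNAs, and active genes were retested.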 Unmarked entries are inactive. Reagents against one gene are numbered here. Further read-outs or replicates are left out here. The record does not give: the amount of reagent.

Knock-down of FAM107A #1 came out at: G2 robust z-score 1.95; G2 cells, % of GMNN control 16.7.
Silencing of FAM107A #2 resulted in: G2 robust z-score 0.757; G2 cells, % of GMNN control 8.29.
Against FAM107A #3 the deposit lists G2 robust z-score 1.76; G2 cells, % of GMNN control 15.3.
Depletion of CADM2 #1 resulted in: G2 robust z-score -1.03; G2 cells, % of GMNN control -4.26.
Silencing of CADM2 #2 resulted in: G2 robust z-score 1.15; G2 cells, % of GMNN control 11.1.
For CADM2 #3, the values are G2 robust z-score 6.96 (active); G2 cells, % of GMNN control 51.9.
Against EDA2R #1, the entry reads G2 robust z-score 0.391; G2 cells, % of GMNN control 5.72.
EDA2R #2 gave G2 robust z-score -1.02; G2 cells, % of GMNN control -4.22.
For EDA2R #3 the deposit lists G2 robust z-score -1.12; G2 cells, % of GMNN control -4.89.
For AP1S3 #1, the entry reads G2 robust z-score 1.37; G2 cells, % of GMNN control 12.6.
AP1S3 #2 scored G2 robust z-score -1.26; G2 cells, % of GMNN control -5.93.
Against AP1S3 #3, the values are G2 robust z-score 0.134; G2 cells, % of GMNN control 3.91.
PRKCQ #1 showed G2 robust z-score -0.281; G2 cells, % of GMNN control 0.988.
Against PRKCQ #2, the entry reads G2 robust z-score -0.522; G2 cells, % of GMNN control -0.708.
PRKCQ #3 gave G2 robust z-score -0.603; G2 cells, % of GMNN control -1.27.
Depletion of ATMIN #1 came out at: G2 robust z-score -0.12; G2 cells, % of GMNN control 2.12.
Against ATMIN #2, the values are G2 robust z-score -1.03; G2 cells, % of GMNN control -4.27.
ATMIN #3 gave G2 robust z-score 0.407; G2 cells, % of GMNN control 5.83.
For LRRC45 #1 the deposit lists G2 robust z-score 1.2; G2 cells, % of GMNN control 11.4.
Against LRRC45 #2, the values are G2 robust z-score -0.12; G2 cells, % of GMNN control 2.12.
After knock-down of LRRC45 #3, the screen gave G2 robust z-score 0.303; G2 cells, % of GMNN control 5.1.
Knock-down of LILRA5 #1 gave: G2 robust z-score -0.397; G2 cells, % of GMNN control 0.173.
For LILRA5 #2 the deposit lists G2 robust z-score 0.718; G2 cells, % of GMNN control 8.02.
Silencing of LILRA5 #3 came out at: G2 robust z-score 0.344; G2 cells, % of GMNN control 5.38.

Looked up above:
Result of PRKCQ #1 under “G2 robust z-score”: -0.281
Result of EDA2R #3 under “G2 cells, % of GMNN control”: -4.89
